Where two headings read alike, the source gives them in different places. Results are given in words; binding and its absence hold for the method and conditions named. In cells and extracts the contact can be indirect. Some entries that bind do so weakly or less than the wild type. Blank lines part the entries; values can stand above or below the molecule they belong to.
Columns and labels:
[1] = biological target: caveolin-1 (human (endogenous in Chang cells)) (UniProt Q03135); assay: co-IP; endogenous Cav1 precipitated with anti-Caveolin antibody (BD Transduction) and Protein G magnetic beads from Chang cell lysates (20 mM Tris, 150 mM NaCl, 1% Triton-X-100, pH 7.5); cells not infected or infected with N927 (PorBIA, P-) at MOI 20 for 1 h; in one experiment PLCγ1 inhibitor U73122 (10 µM) added 30 min before infection; Western blot
[2] = biological target: caveolin-1 (human (endogenous in Chang cells)) (UniProt Q03135); assay: as above; remark: listed apart in the source

By UniProt entry, the sequences of proteins in these tests, tags left out.
UniProt Q03135: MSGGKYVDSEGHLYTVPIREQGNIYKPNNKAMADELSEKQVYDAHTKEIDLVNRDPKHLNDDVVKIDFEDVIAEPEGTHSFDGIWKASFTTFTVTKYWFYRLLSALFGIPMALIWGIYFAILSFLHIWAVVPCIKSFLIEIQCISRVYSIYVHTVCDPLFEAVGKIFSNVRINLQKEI
UniProt P27986: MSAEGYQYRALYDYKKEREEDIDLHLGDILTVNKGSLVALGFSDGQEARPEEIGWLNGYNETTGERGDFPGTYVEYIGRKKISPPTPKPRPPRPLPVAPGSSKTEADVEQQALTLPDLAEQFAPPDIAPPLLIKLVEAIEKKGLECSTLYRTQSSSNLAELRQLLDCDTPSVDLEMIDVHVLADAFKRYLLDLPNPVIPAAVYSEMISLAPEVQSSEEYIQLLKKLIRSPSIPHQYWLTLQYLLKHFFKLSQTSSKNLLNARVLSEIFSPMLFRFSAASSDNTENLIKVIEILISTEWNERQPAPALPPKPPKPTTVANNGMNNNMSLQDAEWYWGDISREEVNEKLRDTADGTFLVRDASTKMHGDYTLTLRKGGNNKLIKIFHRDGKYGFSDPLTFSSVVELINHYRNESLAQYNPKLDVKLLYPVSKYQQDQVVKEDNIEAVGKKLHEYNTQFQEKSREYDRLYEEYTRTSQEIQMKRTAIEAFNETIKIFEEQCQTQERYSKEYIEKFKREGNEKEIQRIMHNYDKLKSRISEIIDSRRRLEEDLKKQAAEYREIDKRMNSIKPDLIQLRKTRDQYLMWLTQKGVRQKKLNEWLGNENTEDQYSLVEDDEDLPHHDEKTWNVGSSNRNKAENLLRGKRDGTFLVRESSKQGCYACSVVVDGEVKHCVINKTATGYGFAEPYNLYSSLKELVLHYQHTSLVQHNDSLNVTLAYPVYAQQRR

binding [1]: binds
Molecule: p85 regulatory subunit of phosphoinositide 3-kinase (PI3K, regulatory subunit p85α) (from UniProt P27986 1-724)

binding [2]: binds
B1: phospholipase Cγ1 (enzyme, UniProt P19174 1-1290)
chain: MAGAASPCANGCGPGAPSDAEVLHLCRSLEVGTVMTLFYSKKSQRPERKTFQVKLETRQITWSRGADKIEGAIDIREIKEIRPGKTSRDFDRYQEDPAFRPDQSHCFVILYGMEFRLKTLSLQATSEDEVNMWIKGLTWLMEDTLQAPTPLQIERWLRKQFYSVDRNREDRISAKDLKNMLSQVNYRVPNMRFLRERLTDLEQRSGDITYGQFAQLYRSLMYSAQKTMDLPFLEASTLRAGERPELCRVSLPEFQQFLLDYQGELWAVDRLQVQEFMLSFLRDPLREIEEPYFFLDEFVTFLFSKENSVWNSQLDAVCPDTMNNPLSHYWISSSHNTYLTGDQFSSESSLEAYARCLRMGCRCIELDCWDGPDGMPVIYHGHTLTTKIKFSDVLHTIKEHAFVASEYPVILSIEDHCSIAQQRNMAQYFKKVLGDTLLTKPVEISADGLPSPNQLKRKILIKHKKLAEGSAYEEVPTSMMYSENDISNSIKNGILYLEDPVNHEWYPHYFVLTSSKIYYSEETSSDQGNEDEEEPKEVSSSTELHSNEKWFHGKLGAGRDGRHIAERLLTEYCIETGAPDGSFLVRESETFVGDYTLSFWRNGKVQHCRIHSRQDAGTPKFFLTDNLVFDSLYDLITHYQQVPLRCNEFEMRLSEPVPQTNAHESKEWYHASLTRAQAEHMLMRVPRDGAFLVRKRNEPNSYAISFRAEGKIKHCRVQQEGQTVMLGNSEFDSLVDLISYYEKHPLYRKMKLRYPINEEALEKIGTAEPDYGALYEGRNPGFYVEANPMPTFKCAVKALFDYKAQREDELTFIKSAIIQNVEKQEGGWWRGDYGGKKQLWFPSNYVEEMVNPVALEPEREHLDENSPLGDLLRGVLDVPACQIAIRPEGKNNRLFVFSISMASVAHWSLDVAADSQEELQDWVKKIREVAQTADARLTEGKIMERRKKIALELSELVVYCRPVPFDEEKIGTERACYRDMSSFPETKAEKYVNKAKGKKFLQYNRLQLSRIYPKGQRLDSSNYDPLPMWICGSQLVALNFQTPDKPMQMNQALFMTGRHCGYVLQPSTMRDEAFDPFDKSSLRGLEPCAISIEVLGARHLPKNGRGIVCPFVEIEVAGAEYDSTKQKTEFVVDNGLNPVWPAKPFHFQISNPEFAFLRFVVYEEDMFSDQNFLAQATFPVKGLKTGYRAVPLKNNYSEDLELASLLIKIDIFPAKENGDLSPFSGTSLRERGSDASGQLFHGRAREGSFESRYQQPFEDFRISQEHLADHFDSRERRAPRRTRVNGDNRL

From publication PMC3662692
